One test addresses T1, cYFP-SE (Arabidopsis) (UniProt Q9ZVD0).
T1 sequence: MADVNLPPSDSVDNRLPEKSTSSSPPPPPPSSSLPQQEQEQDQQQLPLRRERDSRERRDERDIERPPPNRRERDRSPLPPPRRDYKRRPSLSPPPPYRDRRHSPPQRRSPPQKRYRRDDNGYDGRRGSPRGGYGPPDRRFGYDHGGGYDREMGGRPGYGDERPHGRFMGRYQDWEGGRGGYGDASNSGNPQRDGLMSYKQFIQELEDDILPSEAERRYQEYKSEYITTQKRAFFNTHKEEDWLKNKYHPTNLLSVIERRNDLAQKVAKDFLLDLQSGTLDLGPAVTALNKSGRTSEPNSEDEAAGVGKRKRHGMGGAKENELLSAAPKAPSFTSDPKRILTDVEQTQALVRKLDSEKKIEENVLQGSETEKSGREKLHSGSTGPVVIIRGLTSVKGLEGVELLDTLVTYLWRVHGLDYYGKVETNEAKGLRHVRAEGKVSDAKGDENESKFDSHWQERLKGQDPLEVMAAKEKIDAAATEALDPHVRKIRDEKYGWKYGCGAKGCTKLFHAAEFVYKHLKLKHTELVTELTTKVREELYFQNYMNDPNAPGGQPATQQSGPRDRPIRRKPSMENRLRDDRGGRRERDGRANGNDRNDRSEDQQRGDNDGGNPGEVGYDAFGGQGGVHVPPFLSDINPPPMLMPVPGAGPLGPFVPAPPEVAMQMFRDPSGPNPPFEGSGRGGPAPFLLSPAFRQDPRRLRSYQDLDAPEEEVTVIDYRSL
The experiment in a line: split reporter.

By UniProt entry, the sequences of proteins in these tests, tags left out.
UniProt Q9SP32: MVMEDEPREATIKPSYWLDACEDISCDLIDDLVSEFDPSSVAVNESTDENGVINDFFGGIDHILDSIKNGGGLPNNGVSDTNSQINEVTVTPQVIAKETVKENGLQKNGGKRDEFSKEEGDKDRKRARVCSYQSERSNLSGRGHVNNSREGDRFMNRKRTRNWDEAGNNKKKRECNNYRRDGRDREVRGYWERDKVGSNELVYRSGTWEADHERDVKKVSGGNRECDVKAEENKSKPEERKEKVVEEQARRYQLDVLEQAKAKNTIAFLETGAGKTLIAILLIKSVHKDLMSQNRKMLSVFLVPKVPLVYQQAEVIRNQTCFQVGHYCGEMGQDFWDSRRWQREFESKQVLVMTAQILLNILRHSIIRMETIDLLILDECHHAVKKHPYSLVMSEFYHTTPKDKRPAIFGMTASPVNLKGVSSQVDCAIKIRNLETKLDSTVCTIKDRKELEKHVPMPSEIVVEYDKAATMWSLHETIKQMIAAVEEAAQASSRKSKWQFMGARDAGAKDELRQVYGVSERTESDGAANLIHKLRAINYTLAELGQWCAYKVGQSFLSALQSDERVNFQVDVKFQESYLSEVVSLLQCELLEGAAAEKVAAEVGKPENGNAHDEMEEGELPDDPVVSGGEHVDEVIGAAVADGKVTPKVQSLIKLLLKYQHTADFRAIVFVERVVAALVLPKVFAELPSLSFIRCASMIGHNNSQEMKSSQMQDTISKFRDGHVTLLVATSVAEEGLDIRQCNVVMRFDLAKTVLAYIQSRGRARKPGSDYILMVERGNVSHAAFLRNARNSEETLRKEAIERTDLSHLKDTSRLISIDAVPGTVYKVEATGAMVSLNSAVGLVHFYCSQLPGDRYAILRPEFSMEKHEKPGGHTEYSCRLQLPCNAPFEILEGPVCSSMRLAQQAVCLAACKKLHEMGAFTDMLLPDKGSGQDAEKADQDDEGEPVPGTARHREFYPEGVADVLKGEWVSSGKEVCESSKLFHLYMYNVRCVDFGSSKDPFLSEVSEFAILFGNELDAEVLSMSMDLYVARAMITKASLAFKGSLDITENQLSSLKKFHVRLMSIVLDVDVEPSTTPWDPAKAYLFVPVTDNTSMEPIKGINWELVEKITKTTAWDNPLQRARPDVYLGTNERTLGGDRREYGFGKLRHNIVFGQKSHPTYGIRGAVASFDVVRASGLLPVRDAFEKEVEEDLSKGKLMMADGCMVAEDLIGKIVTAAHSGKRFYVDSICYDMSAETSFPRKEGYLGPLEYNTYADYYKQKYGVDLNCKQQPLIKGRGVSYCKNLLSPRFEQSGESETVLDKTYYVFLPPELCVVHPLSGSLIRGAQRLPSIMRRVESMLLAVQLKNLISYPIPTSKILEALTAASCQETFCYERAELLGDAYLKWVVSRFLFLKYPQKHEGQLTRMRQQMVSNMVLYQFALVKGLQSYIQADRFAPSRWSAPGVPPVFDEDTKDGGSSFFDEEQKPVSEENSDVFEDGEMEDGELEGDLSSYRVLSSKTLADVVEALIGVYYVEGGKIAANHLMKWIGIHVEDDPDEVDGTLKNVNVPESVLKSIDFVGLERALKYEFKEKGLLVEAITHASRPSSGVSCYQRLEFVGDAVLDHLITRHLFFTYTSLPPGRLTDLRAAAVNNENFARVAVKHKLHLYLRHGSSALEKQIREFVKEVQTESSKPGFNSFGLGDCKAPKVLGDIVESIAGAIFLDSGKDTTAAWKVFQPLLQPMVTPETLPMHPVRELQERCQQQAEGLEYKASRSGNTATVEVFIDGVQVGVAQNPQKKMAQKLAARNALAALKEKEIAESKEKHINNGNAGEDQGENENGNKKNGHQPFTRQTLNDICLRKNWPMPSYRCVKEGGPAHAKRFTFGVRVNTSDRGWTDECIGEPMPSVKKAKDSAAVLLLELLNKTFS

For a further test, the target named is nYFP-DCL1 (Arabidopsis) (UniProt Q9SP32). The experiment in a line: split reporter.

Results are given in words; binding and its absence hold for the method and conditions named. In cells and extracts the contact can be indirect. Some binding calls cover weakened binding; strength is not graded here. Sequences can lack the tags named with a protein.

Regarding nYFP-DCL1 (from UniProt Q9SP32 1-1909), in the test with cYFP-SE (Arabidopsis), the binding entry is “binds”.

B1: cYFP-HYL1 (protein, UniProt O04492 1-419)
chain: MTSTDVSSGVSNCYVFKSRLQEYAQKYKLPTPVYEIVKEGPSHKSLFQSTVILDGVRYNSLPGFFNRKAAEQSAAEVALRELAKSSELSQCVSQPVHETGLCKNLLQEYAQKMNYAIPLYQCQKVETLGRVTQFTCTVEIGGIKYTGAATRTKKDAEISAGRTALLAIQSDTKNNLANYNTQLTVLPCEKKTIQAAIPLKETVKTLKARKAQFKKKAQKGKRTVAKNPEDIIIPPQPTDHCQNDQSEKIETTPNLEPSSCMNGLKEAAFGSVETEKIETTPNLEPPSCMNGLKEAAFGSVETEKIETTPNLEPPSCMNGLKEAAFGSVETEKIETTPNLEPSSCMNGLKEAAFGSVETEKIETTPNLEPPSCMNGLKEAAFGSVETEKIETTPNLESSSCMSGLKEAAFGSVETEASHA
As to B1, the binding result in the test with nYFP-DCL1 (Arabidopsis) is “binds”.

The values above are taken from doi:10.1101/2022.09.13.507836.
